# ± gives the standard deviation of the averaged measurements. The list shows a part of the results, in another mix than the full data. Most values lie at the level of the controls, where differences are scatter.
# The chains behind the UniProt entries cited, without tags or fusion partners. Where a name states a change or a piece, a line headed by the entry shows the natural chain unless it says otherwise.
# UniProt P16989, whole entry: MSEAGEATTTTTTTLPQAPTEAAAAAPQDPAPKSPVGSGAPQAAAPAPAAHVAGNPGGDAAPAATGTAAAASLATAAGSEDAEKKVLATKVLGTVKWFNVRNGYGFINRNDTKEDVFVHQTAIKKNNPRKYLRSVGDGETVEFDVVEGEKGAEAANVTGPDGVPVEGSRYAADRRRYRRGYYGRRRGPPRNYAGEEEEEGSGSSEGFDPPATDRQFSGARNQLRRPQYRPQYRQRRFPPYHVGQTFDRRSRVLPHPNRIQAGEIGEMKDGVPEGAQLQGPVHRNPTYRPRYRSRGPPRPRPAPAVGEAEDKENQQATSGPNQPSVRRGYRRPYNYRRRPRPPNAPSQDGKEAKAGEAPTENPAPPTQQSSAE
# UniProt P25325: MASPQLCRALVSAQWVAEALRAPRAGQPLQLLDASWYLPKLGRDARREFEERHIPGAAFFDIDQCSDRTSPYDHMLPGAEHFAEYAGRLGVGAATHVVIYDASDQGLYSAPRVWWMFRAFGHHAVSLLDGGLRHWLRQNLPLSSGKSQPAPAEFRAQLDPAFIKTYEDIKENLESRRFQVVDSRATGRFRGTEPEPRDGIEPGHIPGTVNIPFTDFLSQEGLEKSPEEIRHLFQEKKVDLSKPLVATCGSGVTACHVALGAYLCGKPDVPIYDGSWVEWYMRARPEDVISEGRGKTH
# UniProt P17542, whole entry: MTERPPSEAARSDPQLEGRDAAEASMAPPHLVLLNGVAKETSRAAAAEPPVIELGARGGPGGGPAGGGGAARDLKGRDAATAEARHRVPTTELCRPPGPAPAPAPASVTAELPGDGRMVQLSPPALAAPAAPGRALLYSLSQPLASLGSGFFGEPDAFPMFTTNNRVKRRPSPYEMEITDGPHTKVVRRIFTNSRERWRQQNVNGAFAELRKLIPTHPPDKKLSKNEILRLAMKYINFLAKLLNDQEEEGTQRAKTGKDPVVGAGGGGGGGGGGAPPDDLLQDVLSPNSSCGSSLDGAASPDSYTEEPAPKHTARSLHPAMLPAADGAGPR
# UniProt P19447: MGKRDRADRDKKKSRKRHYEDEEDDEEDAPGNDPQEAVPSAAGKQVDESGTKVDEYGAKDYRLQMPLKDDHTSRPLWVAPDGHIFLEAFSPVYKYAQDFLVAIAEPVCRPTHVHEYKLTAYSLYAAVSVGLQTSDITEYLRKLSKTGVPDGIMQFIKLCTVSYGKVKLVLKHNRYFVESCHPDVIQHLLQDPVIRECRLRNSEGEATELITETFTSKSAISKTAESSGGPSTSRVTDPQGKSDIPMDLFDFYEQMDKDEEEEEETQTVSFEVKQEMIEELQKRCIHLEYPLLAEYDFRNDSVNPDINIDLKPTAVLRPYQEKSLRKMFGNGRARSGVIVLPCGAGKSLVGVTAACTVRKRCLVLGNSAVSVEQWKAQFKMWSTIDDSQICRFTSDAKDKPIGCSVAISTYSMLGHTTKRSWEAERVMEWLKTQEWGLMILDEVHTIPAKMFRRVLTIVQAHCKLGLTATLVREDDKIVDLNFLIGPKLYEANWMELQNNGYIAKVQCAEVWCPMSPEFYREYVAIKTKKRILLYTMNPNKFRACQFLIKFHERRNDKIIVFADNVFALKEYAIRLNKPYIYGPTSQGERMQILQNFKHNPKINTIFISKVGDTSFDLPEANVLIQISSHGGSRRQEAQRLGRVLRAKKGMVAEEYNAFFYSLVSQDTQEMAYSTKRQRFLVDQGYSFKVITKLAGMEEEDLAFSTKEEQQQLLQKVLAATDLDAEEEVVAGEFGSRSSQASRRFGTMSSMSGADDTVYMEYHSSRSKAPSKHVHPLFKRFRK
# UniProt P26885: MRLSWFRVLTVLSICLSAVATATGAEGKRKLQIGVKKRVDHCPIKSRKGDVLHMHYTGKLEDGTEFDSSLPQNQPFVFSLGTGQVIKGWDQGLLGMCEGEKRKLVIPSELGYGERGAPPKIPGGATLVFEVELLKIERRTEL
# UniProt P35914: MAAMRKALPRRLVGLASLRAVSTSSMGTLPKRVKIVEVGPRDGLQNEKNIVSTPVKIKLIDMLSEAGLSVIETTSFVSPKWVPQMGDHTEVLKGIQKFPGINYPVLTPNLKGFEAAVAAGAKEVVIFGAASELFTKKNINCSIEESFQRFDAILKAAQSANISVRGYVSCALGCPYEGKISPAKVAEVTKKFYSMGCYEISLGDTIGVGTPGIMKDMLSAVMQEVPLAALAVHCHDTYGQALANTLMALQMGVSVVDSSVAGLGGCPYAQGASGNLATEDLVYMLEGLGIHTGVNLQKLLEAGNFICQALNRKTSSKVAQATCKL
# UniProt P18433: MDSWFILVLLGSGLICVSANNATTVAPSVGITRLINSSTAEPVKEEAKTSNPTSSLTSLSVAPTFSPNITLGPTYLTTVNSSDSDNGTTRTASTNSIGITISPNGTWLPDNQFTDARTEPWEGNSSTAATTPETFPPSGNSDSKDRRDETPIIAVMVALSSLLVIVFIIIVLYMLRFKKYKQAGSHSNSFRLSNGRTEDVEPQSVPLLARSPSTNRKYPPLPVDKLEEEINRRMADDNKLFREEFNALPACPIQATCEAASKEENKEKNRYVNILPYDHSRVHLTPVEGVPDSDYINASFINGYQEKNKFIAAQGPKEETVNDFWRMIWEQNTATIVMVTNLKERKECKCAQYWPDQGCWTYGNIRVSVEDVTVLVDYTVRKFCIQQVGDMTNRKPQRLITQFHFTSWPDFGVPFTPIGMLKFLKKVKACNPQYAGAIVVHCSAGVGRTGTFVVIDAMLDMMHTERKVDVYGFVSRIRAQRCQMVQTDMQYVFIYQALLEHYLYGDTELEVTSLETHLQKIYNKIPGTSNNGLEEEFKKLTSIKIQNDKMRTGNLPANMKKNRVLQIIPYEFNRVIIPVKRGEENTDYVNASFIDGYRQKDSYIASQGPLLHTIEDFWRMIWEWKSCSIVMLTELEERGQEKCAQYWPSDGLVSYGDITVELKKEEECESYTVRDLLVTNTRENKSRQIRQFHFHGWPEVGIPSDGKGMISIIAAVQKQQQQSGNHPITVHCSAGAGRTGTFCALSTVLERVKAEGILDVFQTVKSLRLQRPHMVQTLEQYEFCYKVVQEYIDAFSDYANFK
# UniProt P18669: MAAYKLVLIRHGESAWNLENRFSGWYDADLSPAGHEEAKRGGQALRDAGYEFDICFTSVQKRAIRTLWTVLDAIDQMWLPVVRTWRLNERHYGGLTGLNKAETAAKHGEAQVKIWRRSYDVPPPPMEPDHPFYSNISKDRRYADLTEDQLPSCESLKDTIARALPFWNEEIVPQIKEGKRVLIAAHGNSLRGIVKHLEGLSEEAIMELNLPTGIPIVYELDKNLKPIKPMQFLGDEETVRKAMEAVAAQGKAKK
# UniProt P19367: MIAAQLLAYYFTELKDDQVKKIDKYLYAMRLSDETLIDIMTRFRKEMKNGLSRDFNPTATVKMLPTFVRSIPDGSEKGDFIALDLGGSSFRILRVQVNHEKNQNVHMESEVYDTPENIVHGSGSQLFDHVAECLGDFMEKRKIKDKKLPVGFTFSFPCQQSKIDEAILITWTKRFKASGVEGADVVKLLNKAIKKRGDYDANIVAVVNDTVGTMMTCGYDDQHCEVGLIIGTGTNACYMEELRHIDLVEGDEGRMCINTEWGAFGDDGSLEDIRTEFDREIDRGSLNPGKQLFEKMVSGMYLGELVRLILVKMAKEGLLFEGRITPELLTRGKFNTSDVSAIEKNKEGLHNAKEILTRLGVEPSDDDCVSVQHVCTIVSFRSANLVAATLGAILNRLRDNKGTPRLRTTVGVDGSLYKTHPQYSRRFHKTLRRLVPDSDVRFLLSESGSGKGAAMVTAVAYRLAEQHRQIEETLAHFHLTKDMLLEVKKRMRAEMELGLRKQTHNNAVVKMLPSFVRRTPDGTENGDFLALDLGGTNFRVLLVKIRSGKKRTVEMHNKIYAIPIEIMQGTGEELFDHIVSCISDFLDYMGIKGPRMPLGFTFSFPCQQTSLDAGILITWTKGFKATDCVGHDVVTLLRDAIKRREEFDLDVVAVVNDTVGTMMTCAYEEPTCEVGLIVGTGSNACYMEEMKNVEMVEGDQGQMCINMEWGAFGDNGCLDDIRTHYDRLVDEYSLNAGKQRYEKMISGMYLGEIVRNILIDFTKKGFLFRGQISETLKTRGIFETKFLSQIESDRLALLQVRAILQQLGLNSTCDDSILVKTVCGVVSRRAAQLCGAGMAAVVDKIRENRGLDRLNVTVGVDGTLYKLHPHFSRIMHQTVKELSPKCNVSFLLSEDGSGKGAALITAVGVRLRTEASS
# UniProt P35232: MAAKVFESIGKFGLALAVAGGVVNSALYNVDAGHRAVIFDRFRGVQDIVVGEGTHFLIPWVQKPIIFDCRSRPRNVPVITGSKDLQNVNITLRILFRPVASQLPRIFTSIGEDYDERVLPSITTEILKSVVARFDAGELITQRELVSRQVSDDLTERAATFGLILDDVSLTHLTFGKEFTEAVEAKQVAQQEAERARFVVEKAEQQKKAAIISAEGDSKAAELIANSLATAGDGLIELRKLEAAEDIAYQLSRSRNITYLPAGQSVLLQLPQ
# UniProt P22001, whole entry: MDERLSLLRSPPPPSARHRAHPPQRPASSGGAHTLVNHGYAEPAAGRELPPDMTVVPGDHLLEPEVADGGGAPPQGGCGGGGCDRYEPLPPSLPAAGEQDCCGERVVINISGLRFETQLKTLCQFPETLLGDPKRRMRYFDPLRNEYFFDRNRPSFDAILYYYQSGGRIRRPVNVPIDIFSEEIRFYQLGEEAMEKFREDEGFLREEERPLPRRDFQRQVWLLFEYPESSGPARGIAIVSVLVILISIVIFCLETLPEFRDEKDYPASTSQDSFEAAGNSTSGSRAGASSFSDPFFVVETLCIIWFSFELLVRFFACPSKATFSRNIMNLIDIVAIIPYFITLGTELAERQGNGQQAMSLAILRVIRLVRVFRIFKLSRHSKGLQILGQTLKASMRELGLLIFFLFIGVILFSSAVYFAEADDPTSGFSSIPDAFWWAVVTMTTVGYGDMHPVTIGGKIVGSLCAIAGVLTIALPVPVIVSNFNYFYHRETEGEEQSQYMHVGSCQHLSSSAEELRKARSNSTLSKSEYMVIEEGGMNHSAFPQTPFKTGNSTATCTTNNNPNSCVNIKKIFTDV
# UniProt P23921: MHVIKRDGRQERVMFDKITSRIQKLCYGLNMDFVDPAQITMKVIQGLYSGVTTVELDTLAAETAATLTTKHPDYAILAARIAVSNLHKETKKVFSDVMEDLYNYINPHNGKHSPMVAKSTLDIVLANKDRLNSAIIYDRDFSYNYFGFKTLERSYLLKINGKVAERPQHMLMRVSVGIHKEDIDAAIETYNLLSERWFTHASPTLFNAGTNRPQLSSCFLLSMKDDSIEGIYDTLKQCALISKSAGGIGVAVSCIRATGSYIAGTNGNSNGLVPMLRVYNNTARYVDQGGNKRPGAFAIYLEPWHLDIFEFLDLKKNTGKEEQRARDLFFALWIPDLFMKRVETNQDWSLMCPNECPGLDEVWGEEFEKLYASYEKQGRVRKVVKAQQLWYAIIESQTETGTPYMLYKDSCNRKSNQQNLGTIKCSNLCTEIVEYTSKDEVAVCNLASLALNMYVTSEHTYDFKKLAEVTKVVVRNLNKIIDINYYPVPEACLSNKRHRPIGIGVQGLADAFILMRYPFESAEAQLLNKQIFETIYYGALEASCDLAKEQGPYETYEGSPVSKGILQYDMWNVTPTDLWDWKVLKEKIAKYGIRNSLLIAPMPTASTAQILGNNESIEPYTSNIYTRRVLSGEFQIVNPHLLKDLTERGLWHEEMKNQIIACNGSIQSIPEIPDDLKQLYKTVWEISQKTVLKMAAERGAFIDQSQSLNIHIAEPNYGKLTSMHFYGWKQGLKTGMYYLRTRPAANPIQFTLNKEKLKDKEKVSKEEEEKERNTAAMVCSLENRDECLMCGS
# UniProt P37108: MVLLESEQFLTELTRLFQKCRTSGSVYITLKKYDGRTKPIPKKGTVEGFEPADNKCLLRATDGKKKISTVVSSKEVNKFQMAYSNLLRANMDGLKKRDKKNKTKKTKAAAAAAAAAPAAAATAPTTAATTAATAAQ
# UniProt P20963, whole entry: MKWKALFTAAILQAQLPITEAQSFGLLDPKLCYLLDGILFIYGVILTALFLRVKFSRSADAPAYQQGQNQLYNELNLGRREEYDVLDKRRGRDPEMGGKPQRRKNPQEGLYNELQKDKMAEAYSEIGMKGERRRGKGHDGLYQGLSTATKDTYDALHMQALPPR
# UniProt P23526: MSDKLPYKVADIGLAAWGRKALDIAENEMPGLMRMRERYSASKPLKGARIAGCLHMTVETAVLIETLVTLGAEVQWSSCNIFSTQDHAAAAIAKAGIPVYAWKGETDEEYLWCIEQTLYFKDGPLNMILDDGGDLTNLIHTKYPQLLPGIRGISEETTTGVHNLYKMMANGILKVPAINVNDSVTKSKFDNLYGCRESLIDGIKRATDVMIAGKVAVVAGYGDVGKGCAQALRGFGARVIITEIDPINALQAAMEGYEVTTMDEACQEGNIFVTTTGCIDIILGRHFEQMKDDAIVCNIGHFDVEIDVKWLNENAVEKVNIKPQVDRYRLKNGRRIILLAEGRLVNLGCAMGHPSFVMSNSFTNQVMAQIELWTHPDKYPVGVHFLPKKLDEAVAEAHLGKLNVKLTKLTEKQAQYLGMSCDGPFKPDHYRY
# Compound: Nc1ncnc2c1ncn2[C@@H]1O[C@H](COP(=O)(O)OP(=O)(O)NP(=O)(O)O)[C@@H](O)[C@H]1O [adenylyl imidodiphosphate]
# Assay: NP40-soluble protein abundance relative to vehicle (solubility fold change) (ratio); higher = more soluble protein in presence of AMP-PNP
# Outline: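 In three independent experiments, Jurkat crude lysate made by Dounce homogenisation was treated for 10 min at room temperature and then 3 min at 37 °C with eight concentrations ranging from 0.1 to 10 mM. It was then solubilised with 0.8% NP40 plus benzonase for 60 min at 4 °C and ultracentrifuged. The supernatant was TMT-labelled for LC-MS/MS, and each value is the fold change against the detergent-processed vehicle for the same replicate, using vsn-normalised intensities.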
Target,NP40-soluble protein abundance (concentration: 0.1mM),NP40-soluble protein abundance (concentration: 0.5mM)
UniProt P26368 and related entries,1.11 ± 0.11,0.987 ± 0.091
ARID4A (UniProt P29374),0.977 ± 0.026,1.01 ± 0.053
VDAC1 (UniProt P21796),0.984 ± 0.011,1.02 ± 0.035
SDHB (UniProt P21912),0.976 ± 0.029,1.04 ± 0.069
UniProt P16989 and related entries,0.985 ± 0.045,0.965 ± 0.022
CPT2 (UniProt P23786),1.01 ± 0.031,0.962 ± 0.058
PSMC2 (UniProt P35998),0.994 ± 0.019,0.98 ± 0.027
UniProt P25325 and related entries,0.993 ± 0.052,0.976 ± 0.033
UniProt P36954,1.04 ± 0.0041,1.03 ± 0.025
ATP6V1C1 (UniProt P21283),1.01 ± 0.021,0.975 ± 0.021
TAGLN2 (UniProt P37802),0.972 ± 0.082,0.953 ± 0.039
UniProt P17542 and related entries,1.01 ± 0.015,0.986 ± 0.012
ERCC3 (UniProt P19447),1 ± 0.018,0.996 ± 0.055
MYH10 (UniProt P35580),1.07 ± 0.057,1.13 ± 0.14
UniProt P35658 and related entries,0.9851 ± 0.0094,1.02 ± 0.046
PPM1A (UniProt P35813),1 ± 0.032,1.04 ± 0.047
CCNA2 (UniProt P20248),0.974 ± 0.022,0.99 ± 0.076
SRM (UniProt P19623),1.01 ± 0.047,0.985 ± 0.046
CAPG (UniProt P40121),0.981 ± 0.019,1.01 ± 0.039
ATP6V1B2 (UniProt P21281),0.994 ± 0.025,1.01 ± 0.054
UniProt P27540 and related entries,0.977 ± 0.022,1.03 ± 0.02
UniProt P25398,0.989 ± 0.013,0.966 ± 0.014
UniProt P35613 and related entries,0.9649 ± 0.0093,1 ± 0.026
UniProt P20340-2,1.03 ± 0.021,1.05 ± 0.025

Target,NP40-soluble protein abundance (concentration: 0.1mM),NP40-soluble protein abundance (concentration: 0.5mM)
PFKL (UniProt P17858),1.06 ± 0.032,1.01 ± 0.088
FKBP2 (UniProt P26885),0.992 ± 0.015,0.999 ± 0.018
UniProt P25445 and related entries,0.941 ± 0.029,0.998 ± 0.082
UniProt P30622 and related entries,0.982 ± 0.036,0.979 ± 0.045
RAB3A (UniProt P20336),1.03 ± 0.026,1.04 ± 0.035
HMGCL (UniProt P35914),0.968 ± 0.035,0.966 ± 0.015
RPS3 (UniProt P23396),1.05 ± 0.019,0.98 ± 0.077
UniProt P26639,1.02 ± 0.024,0.991 ± 0.056
UniProt P18846 and related entries,0.935 ± 0.032,0.965 ± 0.03
UniProt P18433 and related entries,1.03 ± 0.014,1.02 ± 0.019
KIF5B (UniProt P33176),0.991 ± 0.015,1.03 ± 0.048
UniProt P17544-2|P17544-4|P17544-6,0.969 ± 0.039,0.998 ± 0.05
HNRNPA2B1 (UniProt P22626),1.07 ± 0.14,1.03 ± 0.1
UniProt P19525 and related entries,1.05 ± 0.041,1.06 ± 0.025
UniProt P17980 and related entries,0.995 ± 0.027,0.947 ± 0.046
UniProt P38398 and related entries,0.99 ± 0.061,0.978 ± 0.028
RPS19 (UniProt P39019),1.06 ± 0.058,1.04 ± 0.042
UniProt P31942 and related entries,1.03 ± 0.06,1.06 ± 0.05
UniProt P27987 and related entries,0.979 ± 0.046,0.977 ± 0.018
MCM7 (UniProt P33993),1.02 ± 0.012,0.976 ± 0.037
UniProt P32321 and related entries,0.98 ± 0.039,0.98 ± 0.05
PGAM1 (UniProt P18669),0.881 ± 0.09,0.964 ± 0.025
UniProt P23610,1.05 ± 0.03,0.991 ± 0.045
UniProt P30203 and related entries,1.02 ± 0.018,1.02 ± 0.013

# A few values from the results shown:
# Value for UniProt P26639 under NP40-soluble protein abundance (concentration: 0.1mM): 1.02 ± 0.024
# Value for HMGCL (UniProt P35914) under NP40-soluble protein abundance (concentration: 0.5mM): 0.966 ± 0.015
# Value for UniProt P18433 and related entries under NP40-soluble protein abundance (concentration: 0.1mM): 1.03 ± 0.014
# Value for RAB3A (UniProt P20336) under NP40-soluble protein abundance (concentration: 0.1mM): 1.03 ± 0.026

# (listing goes on)

Target,NP40-soluble protein abundance (concentration: 0.1mM),NP40-soluble protein abundance (concentration: 0.5mM)
TNFAIP3 (UniProt P21580),0.9954 ± 0.0053,1 ± 0.048
UniProt P19367 and related entries,1.04 ± 0.027,1.01 ± 0.065
PHB (UniProt P35232),1 ± 0.016,1 ± 0.032
YY1 (UniProt P25490),1.009 ± 0.0032,1.05 ± 0.064
UniProt P28074 and related entries,1.02 ± 0.018,0.99 ± 0.097
UniProt P32929 and related entries,1.02 ± 0.043,0.984 ± 0.079
UniProt P28799 and related entries,0.9777 ± 0.0086,1.02 ± 0.06
UniProt P28907,0.956 ± 0.016,0.971 ± 0.026
UniProt P28066 and related entries,0.997 ± 0.022,0.983 ± 0.011
MCM4 (UniProt P33991),1 ± 0.028,0.982 ± 0.011
UniProt P26038 and related entries,0.938 ± 0.12,0.986 ± 0.086
ALDH4A1 (UniProt P30038),0.992 ± 0.024,0.975 ± 0.039
UniProt P23469 and related entries,1.01 ± 0.025,0.987 ± 0.042
UniProt P17096 and related entries,0.975 ± 0.036,1.06 ± 0.27
NDUFB7 (UniProt P17568),1.01 ± 0.071,1.07 ± 0.083
UniProt P22001,0.994 ± 0.03,0.997 ± 0.021
MAN1A1 (UniProt P33908),1.01 ± 0.013,0.956 ± 0.029
RRM1 (UniProt P23921),1.04 ± 0.046,1.02 ± 0.11
UniProt P35244 and related entries,0.971 ± 0.029,1.02 ± 0.013
EIF4A3 (UniProt P38919),1.06 ± 0.037,1.03 ± 0.16
UniProt P19022 and related entries,0.97 ± 0.024,0.973 ± 0.028
UniProt P22830 and related entries,1.01 ± 0.03,0.968 ± 0.055
IGFBP2 (UniProt P18065),0.995 ± 0.03,1 ± 0.013
IMPA1 (UniProt P29218),0.985 ± 0.03,0.968 ± 0.045

# Some of the entries above, set out differently:
Target	NP40-soluble protein abundance (concentration: 0.1mM)	NP40-soluble protein abundance (concentration: 0.5mM)
MAN1A1 (UniProt P33908)	1.01 ± 0.013	0.956 ± 0.029
RRM1 (UniProt P23921)	1.04 ± 0.046	1.02 ± 0.11
UniProt P35244 and related entries	0.971 ± 0.029	1.02 ± 0.013
EIF4A3 (UniProt P38919)	1.06 ± 0.037	1.03 ± 0.16

# Next results

Target,NP40-soluble protein abundance (concentration: 0.1mM),NP40-soluble protein abundance (concentration: 0.5mM)
UQCRC2 (UniProt P22695),1.07 ± 0.04,1.02 ± 0.034
PGM1 (UniProt P36871),1.01 ± 0.035,0.998 ± 0.072
UniProt P19174 and related entries,1 ± 0.056,0.963 ± 0.081
UniProt P17252,0.996 ± 0.011,1.03 ± 0.046
UniProt P31350 and related entries,0.993 ± 0.027,0.951 ± 0.051
LRPAP1 (UniProt P30533),0.968 ± 0.045,1.01 ± 0.034
IL2RG (UniProt P31785),1.02 ± 0.044,0.985 ± 0.024
UniProt P20073 and related entries,1.01 ± 0.038,0.99 ± 0.031
CA8 (UniProt P35219),1 ± 0.021,0.999 ± 0.042
POLR2C (UniProt P19387),0.994 ± 0.038,0.986 ± 0.046
ECHS1 (UniProt P30084),0.98 ± 0.023,1.01 ± 0.011
JAK1 (UniProt P23458),1.13 ± 0.059,1.13 ± 0.043
MCM3 (UniProt P25205),0.971 ± 0.021,0.944 ± 0.02
ERP29 (UniProt P30040),1 ± 0.059,1.03 ± 0.085
UniProt P22694 and related entries,1 ± 0.028,0.987 ± 0.044
UniProt P27635 and related entries,0.999 ± 0.066,0.989 ± 0.082
UniProt P26358 and related entries,0.995 ± 0.013,1.02 ± 0.031
SRP14 (UniProt P37108),0.988 ± 0.028,1.06 ± 0.098
UniProt P20963-3|P20963,1.01 ± 0.069,1.01 ± 0.054
UniProt P25054 and related entries,0.9945 ± 0.0068,0.992 ± 0.052
FEN1 (UniProt P39748),0.98 ± 0.038,1.02 ± 0.034
TRIM21 (UniProt P19474),0.964 ± 0.015,0.957 ± 0.018
UniProt P36639 and related entries,0.986 ± 0.046,0.995 ± 0.047
ZNF8 (UniProt P17098),0.9759 ± 0.0037,1.01 ± 0.052

Target,NP40-soluble protein abundance (concentration: 0.1mM),NP40-soluble protein abundance (concentration: 0.5mM)
UniProt P28482,1.01 ± 0.022,1.02 ± 0.052
PSMB1 (UniProt P20618),1.01 ± 0.03,0.993 ± 0.012
AHCY (UniProt P23526),1.012 ± 0.0095,1.03 ± 0.04
GNA15 (UniProt P30679),0.945 ± 0.045,0.976 ± 0.015
FDFT1 (UniProt P37268),1.03 ± 0.04,1.01 ± 0.057
GLRX (UniProt P35754),1.03 ± 0.011,1.02 ± 0.038
ATIC (UniProt P31939),1 ± 0.023,1.03 ± 0.05
NUP62 (UniProt P37198),0.979 ± 0.01,1.01 ± 0.027
CD82 (UniProt P27701),1.02 ± 0.039,1.13 ± 0.17
DEK (UniProt P35659),0.979 ± 0.043,1.04 ± 0.055
UniProt P36507,1.03 ± 0.031,1.06 ± 0.049
UniProt P35611 and related entries,0.996 ± 0.028,0.995 ± 0.038
EEF1G (UniProt P26641),0.9956 ± 0.0053,0.999 ± 0.043
BLVRB (UniProt P30043),1.01 ± 0.031,1.01 ± 0.036
MCM5 (UniProt P33992),0.98 ± 0.033,0.962 ± 0.027
UniProt P35606 and related entries,1.03 ± 0.019,1.02 ± 0.021
RPA1 (UniProt P27694),0.988 ± 0.019,0.993 ± 0.051
UniProt P35251 and related entries,0.985 ± 0.012,1.06 ± 0.043
UniProt P23229 and related entries,1.02 ± 0.019,0.987 ± 0.054
P39880-3|Q13948 and related entries (UniProt Q13948+P39880),0.986 ± 0.012,1.02 ± 0.032
DNAJA1 (UniProt P31689),0.942 ± 0.09,0.927 ± 0.063
CPOX (UniProt P36551),1.03 ± 0.025,1 ± 0.065
CHML (UniProt P26374),0.967 ± 0.0024,0.9771 ± 0.0092
UniProt P20701 and related entries,1.01 ± 0.048,0.998 ± 0.036

# Reference: the supplement of paper PMC6411743
